No constants are given. Whether binding was seen depends on the method and setting.
Biological target: recombinant human PRAME region 161-415 (human) (UniProt P78395)
Assay: SEC; analytical gel filtration, BIOSEP S-2000 column, 25 mM phosphate buffer pH 7.5, 150 mM NaCl, 1.0 mL/min; fraction recovered after urea removal; both purified

Protein sequences, listed by entry. Tags and fused reporters are not part of them. Residues count along the entry.
UniProt P78395, residues 161-415: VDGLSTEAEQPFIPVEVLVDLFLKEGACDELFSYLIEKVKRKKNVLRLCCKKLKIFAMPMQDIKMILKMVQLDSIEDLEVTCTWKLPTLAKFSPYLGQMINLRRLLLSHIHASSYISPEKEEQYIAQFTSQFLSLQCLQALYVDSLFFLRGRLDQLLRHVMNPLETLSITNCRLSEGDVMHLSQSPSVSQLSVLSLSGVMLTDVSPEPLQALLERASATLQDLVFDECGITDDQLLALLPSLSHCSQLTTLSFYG

binding: no binding
Substance: recombinant human PRAME region 161-415 (from UniProt P78395 161-415) (domain or fragment)
